Assay results from publication doi:10.1101/2021.11.02.466878.
No constants are given. Whether binding was seen depends on the method and setting. For part of these data: In cells and extracts the contact can be indirect. Some binding calls cover weakened binding; strength is not graded here. For part of these data: Sequences can lack the tags named with a protein. Values belong to the binder of their own block, whether it stands above or below them.

Legend:
[1] = molecular target: T1, CPSF73 overexpressed in HEK cells (human) (UniProt Q9UKF6); test: pull-down
T1 sequence: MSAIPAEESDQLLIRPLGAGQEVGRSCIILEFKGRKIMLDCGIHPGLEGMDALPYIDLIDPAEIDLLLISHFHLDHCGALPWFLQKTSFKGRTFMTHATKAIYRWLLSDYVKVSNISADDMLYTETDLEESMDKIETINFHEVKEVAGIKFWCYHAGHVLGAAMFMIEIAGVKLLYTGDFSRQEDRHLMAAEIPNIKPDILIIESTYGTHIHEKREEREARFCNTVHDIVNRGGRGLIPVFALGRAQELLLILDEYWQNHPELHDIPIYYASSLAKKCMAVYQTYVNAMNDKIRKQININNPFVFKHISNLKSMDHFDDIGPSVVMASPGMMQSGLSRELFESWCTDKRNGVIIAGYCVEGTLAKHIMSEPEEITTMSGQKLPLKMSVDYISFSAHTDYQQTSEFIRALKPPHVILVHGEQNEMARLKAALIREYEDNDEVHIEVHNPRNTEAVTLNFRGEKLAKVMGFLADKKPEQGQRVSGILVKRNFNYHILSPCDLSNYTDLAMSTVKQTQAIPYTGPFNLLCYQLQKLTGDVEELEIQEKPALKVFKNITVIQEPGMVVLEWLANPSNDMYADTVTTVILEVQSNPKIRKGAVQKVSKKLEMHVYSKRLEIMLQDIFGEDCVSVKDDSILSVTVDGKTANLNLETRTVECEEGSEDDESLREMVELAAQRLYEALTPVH

[2] = molecular target: T2, RBBP6_(1-335), FLAG-tagged, purified (human) (UniProt Q7Z6E9); test: cross-linking
T2 sequence: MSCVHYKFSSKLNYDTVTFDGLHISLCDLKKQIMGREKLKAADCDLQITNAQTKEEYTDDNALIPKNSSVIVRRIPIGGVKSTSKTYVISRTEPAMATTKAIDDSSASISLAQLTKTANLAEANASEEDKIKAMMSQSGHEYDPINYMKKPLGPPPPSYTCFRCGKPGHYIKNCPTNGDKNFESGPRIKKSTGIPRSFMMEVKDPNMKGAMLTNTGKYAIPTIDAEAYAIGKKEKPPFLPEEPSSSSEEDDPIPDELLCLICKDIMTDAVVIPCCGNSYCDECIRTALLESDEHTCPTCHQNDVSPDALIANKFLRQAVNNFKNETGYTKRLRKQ

[3] = molecular target: T2, RBBP6_(1-335), FLAG-tagged, purified (human); test: cryo-EM structure

binding [1]: binds
B1: RBBP6_(1-335) overexpressed in HEK cells (domain or fragment, UniProt Q7Z6E9 1-335)
chain: T2 sequence

binding [2]: binds
binding [3]: binds
B2: CPSF73, as subunit of the purified recombinant CPSF complex (enzyme, UniProt Q9UKF6 1-684)
chain: T1 sequence
